Experimental data from PubChem BioAssay AID540276 (National Center for Advancing Translational Sciences (NCATS), 2011).
Out of some 300,000 compounds screened, about 5,400 (1.8%) were called active. The shares of active, inactive and inconclusive entries below differ from those in the screen. Calls follow the shape of the full dose curve; tested in HEK293 cells. A potency beside an inconclusive call is a rough fit, not a confirmed value.

Assay: qHTS for inhibitors of binding or entry into cells for Marburg Virus
Settings: Marburg virus pseudotyped entry inhibition, cell reporter; series mostly up to 37.8 µM
Potency is read from the fitted curve at half-maximal effect.

| SMILES | Potency |
| --- | --- |
| COc1ccc(CNC(=O)C2CCN(S(=O)(=O)c3ccc4c(c3)N(C(C)=O)CCO4)CC2)cc1 | inconclusive: 2.82 µM [activator, full curve, poor fit] |
| COc1ccc(CC(NC(C)=O)C(=O)NC2CCN(C(=O)NCc3ccccc3)CC2)cc1 (stereo not drawn) | inconclusive: 5.8 µM [activator, single point] |
| COc1ccc(S(=O)(=O)NCC(=O)NCc2cc(=O)n(C)c(=O)n2C)cc1 | inconclusive: 0.562 µM [activator, full curve, poor fit] |
| CCCc1ccc2oc(C(=O)N3CCN(C4CCS(=O)(=O)C4)CC3)c(C)c2c1 (stereo not drawn) | inactive |
| CCC(C(=O)NC1CCCC1)N(Cc1ccccc1Cl)C(=O)c1snc(C(N)=O)c1N (stereo not drawn) | inconclusive: 7.08 µM [inhibitor, partial curve, poor fit] |
| COc1ccccc1NC(=O)CC(c1ccc(OC(C)C)cc1)c1ccccc1OC (stereo not drawn) | inconclusive: 5.8 µM [inhibitor, partial curve, poor fit] |
| O=S(=O)(CCN1CCSCC1)c1ccccc1 | inactive |
| COc1cccc(-c2c(C(=O)N/N=C/c3ccoc3)nnn2-c2nonc2N)c1 | inconclusive: 31.6 µM [activator, single point] |
| O=C(/C=C/c1cccs1)N1CCCCC1 | inconclusive: 35.5 µM [activator, single point] |
| CCCNC(=O)C(Cc1ccccc1)NS(=O)(=O)c1ccc2c(c1)c(=O)n(C)c(=O)n2C (stereo not drawn) | inactive |
| O=C(CSc1nnc(CNC(=O)c2ccco2)o1)Nc1ccccc1 | inactive |
| CCOC(=O)c1[nH]c(C)c(C(=O)OCC(=O)N2CCc3ccccc32)c1C | inconclusive: 5.8 µM [inhibitor, partial curve, poor fit] |
| COC(=O)Cn1c(=NC(=O)c2cc(-c3cccs3)nc3ccccc23)sc2cc(S(N)(=O)=O)ccc21 | inconclusive: 35.5 µM [inhibitor, partial curve, poor fit] |
| CC(C)(C)n1ncc2c(=O)n(CC(=O)N3CCN(c4ccccc4)CC3)cnc21 | inconclusive: 1.26 µM [activator, single point] |
| N/C(=N\OC(=O)c1cccc(Br)c1)c1ccc(Br)cc1 | inactive |
| CCN(CC)S(=O)(=O)c1cccc(C(=O)NCc2ccccc2)c1 | inactive |
| O=C(COC(=O)c1ccccc1C(=O)c1ccccc1)NCCc1ccc(Cl)cc1Cl | inconclusive: 35.5 µM [inhibitor, single point] |
| c1ccc(CN2CCN(C(c3ccccc3)c3nnnn3Cc3ccccc3)CC2)cc1 (stereo not drawn) | inconclusive: 35.5 µM [inhibitor, single point] |
| COc1ccc(NS(=O)(=O)c2ccc(NC(=S)NC(=O)c3ccc(F)cc3)cc2)nn1 | inconclusive: 5.62 µM [inhibitor, single point] |
| CCc1ccc(/C=N/NC(=O)c2nnn(-c3nonc3N)c2C(C)C)cc1 | inconclusive: 3.55 µM [inhibitor, single point] |
| O=[N+]([O-])c1ccc(S(=O)(=O)N/N=C/c2ccc3c(c2)OCO3)cc1 | inactive |
| Fc1ccc(-c2nc(-c3cnccn3)no2)c(Cl)c1 | inactive |

| SMILES | Potency |
| --- | --- |
| O=C(CSc1nc2ccc(Nc3nc(N4CCOCC4)nc(N4CCOCC4)n3)cc2s1)N1CCOCC1 | inconclusive: 25.1 µM [inhibitor, single point] |
| O=C(c1ccccc1)c1ccc2c(c1)OCCCO2 | inactive |
| CN(CC(=O)Nc1cccc(F)c1)C(=O)c1ccc(COc2ccccc2)cc1 | inconclusive: 6.31 µM [inhibitor, single point] |
| CC(NC(=O)CCNC(=O)c1ccc(C(C)(C)C)cc1)c1ccccc1 (stereo not drawn) | inactive |
| O=C(c1cn(-c2ccc(Cl)c(Cl)c2)nn1)C1CC1 | inconclusive: 35.5 µM [activator, single point] |
| O=C(N/N=C/c1ccsc1)c1cc(-c2cccs2)nc2ccccc12 | inconclusive: 6.31 µM [inhibitor, single point] |
| O=C(Nc1ccc2c(c1)OCCO2)c1cccs1 | inconclusive: 16.4 µM [inhibitor, single point] |
| CC(C)CNC(=S)NC(=O)c1ccc(Cl)cc1 | inconclusive: 1.78 µM [activator, partial curve, poor fit] |
| Cc1nc2ccc(NC3=NCCCCC3)cc2s1 | inactive |
| O=C(COC(=O)c1cccnc1Nc1cccc(C(F)(F)F)c1)NCc1ccc2c(c1)OCO2 | inconclusive: 18.3 µM [inhibitor, single point] |
| COCC(=O)c1[nH]c2ccccc2c1C | inactive |
| Cc1ccc(O)c(-c2n[nH]c3c2C(c2ccc(F)cc2)N(Cc2ccco2)C3=O)c1 (stereo not drawn) | inconclusive: 22.4 µM [inhibitor, single point] |
| Clc1ccc(OCCCCSc2ncccn2)cc1 | inactive |
| O=C(CCn1c(=S)[nH]c2ccccc2c1=O)Nc1ccc(F)cc1 | inconclusive: 35.5 µM [inhibitor, single point] |
| Cc1cccc(CN2C(=O)N/C(=C/c3cc(C)n(-c4cc(C)ccn4)c3C)C2=O)c1 | inconclusive: 35.5 µM [inhibitor, single point] |
| COc1ccc(/C=C(/NC(=O)c2ccccc2)c2nc3ccc(Cl)cc3[nH]2)cc1OC | inconclusive: 12.6 µM [inhibitor, partial curve, poor fit] |
| COc1ccc(-n2c(COc3ccc4ccccc4c3)nnc2SCC(=O)NCc2ccco2)cc1 | inconclusive: 16.4 µM [inhibitor, partial curve, poor fit] |
| COc1cc(/C=C/CO)cc(OC)c1O[C@@H]1O[C@H](CO)[C@@H](O)[C@H](O)[C@H]1O | inconclusive: 20.6 µM [activator, partial curve, poor fit] |
| COc1cccc(C(=O)N(Cc2ccc(C)o2)C2CCS(=O)(=O)C2)c1 (stereo not drawn) | inactive |
| CCCc1cc(=O)c2c(O)cccc2o1 | inconclusive: 14.1 µM [inhibitor, single point] |
| CN(C)C(=O)C1C2NC(=S)N(c3ccccc3)C1(C)Oc1ccccc12 (stereo not drawn) | inactive |

A run of entries of the results above, for reference:

| SMILES | Potency |
| --- | --- |
| COc1cccc(C(=O)N(Cc2ccc(C)o2)C2CCS(=O)(=O)C2)c1 (stereo not drawn) | inactive |
| CCCc1cc(=O)c2c(O)cccc2o1 | inconclusive: 14.1 µM [inhibitor, single point] |
| CN(C)C(=O)C1C2NC(=S)N(c3ccccc3)C1(C)Oc1ccccc12 (stereo not drawn) | inactive |
